Source: PubChem BioAssay AID1347076 (National Center for Advancing Translational Sciences (NCATS), 2019)
Screen size: about 400,000 compounds; about 13,000 (3.2%) were called active. The shares of active, inactive and inconclusive entries below differ from those in the screen. The call rests on the fitted dose curve; in most records, active means well fitted cell-killing curve with a large enough effect; inconclusive means small, poorly fitted or top-dose-only effect, or effect the other way; inactive means flat fitted curve, though single readings scatter. Potencies beside an inconclusive call are fits to weak or partial responses and may not hold up.

Assay: qHTS assay for MDR1-selective chemotherapeutics: Primary screen using the drug-selected MDR subline cells KB-V1; further: nearly all actives have a fitted effect of over 60% in size
Conditions: KB-V1 MDR cells viability, CellTiter-Glo, 72 h; series mostly up to 46.1 µM
Method in brief: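 KB-V1 cells (P-gp-expressing MDR subline of KB-3-1) in phenol-red-free DMEM with 10% FBS were exposed to library compounds over a concentration series for 72 h at 37 degrees C. Viability read by CellTiter-Glo luminescence; concentration-effect curves fitted after normalization.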
Potency means the concentration at half of the fitted maximal effect.

Row | Compound | Potency
1 | CCc1cccc(CC)c1NC(=O)CN(C)S(=O)(=O)c1ccc2c(c1)n(C)c(=O)c(=O)n2C | inconclusive: 29.1 µM [rising, single point]
2 | COc1cc(OC)cc(-c2c(C#Cc3ccsc3)c3cc(-c4ccc(CN5CCOCC5)cc4)ccc3n2C)c1 | inactive
3 | COc1cccc2c(=O)n(CC(=O)Nc3ccccc3)ccc12 | inactive
4 | Cc1ccc(Oc2ccccc2NC(=O)CSCC(=O)Nc2cc(C)on2)cc1 | active: 4.61 µM
5 | Cc1nn2c(N3CCCC3)c3c(nc2c1-c1ccccc1)CCC3 | inconclusive: 32.6 µM [cytotoxic, single point]
6 | COc1cc2nc(C3CCC3)n(NC(=O)c3ccco3)c(=O)c2cc1OC | inconclusive: 16.4 µM [cytotoxic, single point]
7 | CCOc1cc(CNCC(C)C)cc(Cl)c1OCc1ccccc1 | inactive
8 | Cc1nc(NC(=O)c2ccc3c(c2)OCCO3)ccc1Br | inconclusive: 29.1 µM [cytotoxic, single point]
9 | O=C(CSc1nnc(-c2ccncc2)o1)Nc1cccc(F)c1 | inactive
10 | CCn1c(SCc2cc(=O)n3ccsc3n2)nc2ccccc21 | inconclusive: 20.6 µM [cytotoxic, single point]
11 | CC(C)(C)c1cc(NC(=O)CCl)n(-c2ccccc2)n1 | inconclusive: 32.6 µM [cytotoxic, single point]
12 | COc1cccc2c1C(=O)c1c(O)c3c(c(O)c1C2=O)CC(O)(C(C)=O)CC3OC1CC(O)C(O)C(C)O1 (centres undefined) | inconclusive: 29.1 µM [cytotoxic, single point]
13 | CNC(=O)c1ccc(-c2sc3nc(N4CCOCC4)c4c(c3c2N)CCCC4)o1 | inconclusive: 18.4 µM [cytotoxic, single point]
14 | COc1ccccc1[C@@]1(C)ON(c2ccccc2C(F)(F)F)C1=O | inactive
15 | Cc1cccc(-c2nnc(SCC(=O)N3c4ccccc4CCc4ccccc43)n2C)c1 | inconclusive: 18.4 µM [cytotoxic, single point]
16 | Cc1ccc(S(=O)(=O)Nc2cc(S(=O)(=O)N3CCOCC3)ccc2NCC2CCCO2)cc1 (centres undefined) | inconclusive: 29.1 µM [cytotoxic, single point]
17 | Cc1ccc2nc(Cl)c(/C=N/Nc3nc(C)cc(C)n3)c(=O)n2c1 | inconclusive: 16.4 µM [cytotoxic, single point]
18 | Cc1ccc(/C=C/c2nc3ccccc3s2)s1 | inactive
19 | COc1ccccc1CC(=O)Nc1ccc(-c2noc(COc3ccc(Br)cc3)n2)cc1 | inconclusive: 5.8 µM [cytotoxic, partial curve]

Random excerpt: 2 compounds from above, in no set order.
Row | Compound | Potency
6 | COc1cc2nc(C3CCC3)n(NC(=O)c3ccco3)c(=O)c2cc1OC | inconclusive: 16.4 µM [cytotoxic, single point]
12 | COc1cccc2c1C(=O)c1c(O)c3c(c(O)c1C2=O)CC(O)(C(C)=O)CC3OC1CC(O)C(O)C(C)O1 (centres undefined) | inconclusive: 29.1 µM [cytotoxic, single point]
